PubChem BioAssay AID686943 – Drosophila RNAi Screening Center | 2013
Aim: 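Knockdowns that increase or decrease active ERK after insulin receptor stimulation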 (primary screen). Cell system: Drosophila S2R+ haemocyte-like cells expressing YFP-tagged ERK (Rolled). Knock-down reagent: long dsRNA against Drosophila genes. Treatment: insulin stimulation versus unstimulated cells; dose and duration not given. Read-out: 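Antibody staining for doubly phosphorylated ERK divided by ERK-YFP signal, as plate z-scores, in insulin-treated and untreated cells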. Reading the numbers: replicate 1, z-score of dpERK with insulin: higher = more active ERK per ERK-YFP after insulin.
The screen tested about 23,000 reagents; this is an unselected part of those that have a named target and a result. 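Extra replicates exist only for a retested subset of genes; insulin dose and duration not given; both raised and lowered dpERK matter.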 Names joined by + are all predicted targets of the reagent. Not all columns of the deposit are shown. No sequences are given here. Not stated in the record: the amount of reagent, the time to read-out.

What did the screen give for CG3407 (GeneID 33606) [DRSC00603]?
replicate 1, z-score of dpERK with insulin: 0.07

What did the screen give for Pi3K59F (GeneID 37733) [DRSC04640]?
replicate 1, z-score of dpERK with insulin: -0.05

For Oatp33Ea (GeneID 34660) [DRSC02859], how do the results read?
replicate 1, z-score of dpERK with insulin: -0.65

How did the screen score CG14270 (GeneID 31319) [DRSC17913]?
replicate 1, z-score of dpERK with insulin: -0.03

How did the screen score Ance (GeneID 34805) [DRSC01865]?
replicate 1, z-score of dpERK with insulin: -0.84

For CG10747 (GeneID 35295) [DRSC02104], what was measured?
replicate 1, z-score of dpERK with insulin: 0.37

Which result is listed for mus101 (GeneID 48309) [DRSC19388]?
replicate 1, z-score of dpERK with insulin: 0.65

With CG1801 (GeneID 33104) [DRSC20556], what does the deposit list?
replicate 1, z-score of dpERK with insulin: 0.18

Which result is listed for CG17575 (GeneID 36414) [DRSC06682]?
replicate 1, z-score of dpERK with insulin: 0.31

For CG2493 (GeneID 35316) [DRSC02707], what does the deposit list?
replicate 1, z-score of dpERK with insulin: -0.26

With CG13131 (GeneID 34334) [DRSC02227], what was measured?
replicate 1, z-score of dpERK with insulin: -0.01

With CG13102 + Rcd-1r [DRSC03266], what was measured?
replicate 1, z-score of dpERK with insulin: -0.13

Which result is listed for CG12288 (GeneID 35027) [DRSC02155]?
replicate 1, z-score of dpERK with insulin: -0.11

How did the screen score e(y)2 (GeneID 45848) [DRSC19640]?
replicate 1, z-score of dpERK with insulin: -0.23

With SP2353 (GeneID 36771) [DRSC07545], how do the results read?
replicate 1, z-score of dpERK with insulin: -0.13

With CG9312 (GeneID 41686) [DRSC16471], how do the results read?
replicate 1, z-score of dpERK with insulin: -0.58

How did the screen score snu (GeneID 43391) [DRSC16589]?
replicate 1, z-score of dpERK with insulin: -0.15

For bond (GeneID 42657) [DRSC16135], what does the deposit list?
replicate 1, z-score of dpERK with insulin: 0.06

For mRpL54 (GeneID 37389) [DRSC04545], what was measured?
replicate 1, z-score of dpERK with insulin: 1.07

With CG17010 (GeneID 34650) [DRSC02559], how do the results read?
replicate 1, z-score of dpERK with insulin: -0.13

With CG5555 (GeneID 42302) [DRSC15834], what does the deposit list?
replicate 1, z-score of dpERK with insulin: -0.54

For CG14034 (GeneID 33751) [DRSC02359], how do the results read?
replicate 1, z-score of dpERK with insulin: 0.08

With Ctr1A (GeneID 31601) [DRSC18336], what does the deposit list?
replicate 1, z-score of dpERK with insulin: -2.51

What did the screen give for CG18563 (GeneID 35050) [DRSC02676]?
replicate 1, z-score of dpERK with insulin: -0.47

What did the screen give for sei (GeneID 37843) [DRSC04713]?
replicate 1, z-score of dpERK with insulin: -0.24

How did the screen score CG9951 (GeneID 39888) [DRSC11105]?
replicate 1, z-score of dpERK with insulin: 0.42

What is on record for Lcp65Ad (GeneID 38707) [DRSC11211]?
replicate 1, z-score of dpERK with insulin: 0.34

How did the screen score CG17768 + LSm-4 [DRSC02845]?
replicate 1, z-score of dpERK with insulin: -0.02

With Jhbp4 (GeneID 41948) [DRSC14222], what was measured?
replicate 1, z-score of dpERK with insulin: -0.34

How did the screen score myo (GeneID 43811) [DRSC17174]?
replicate 1, z-score of dpERK with insulin: -0.28

With gfzf (GeneID 40858) [DRSC12506], what does the deposit list?
replicate 1, z-score of dpERK with insulin: -3.19

What did the screen give for gfzf (GeneID 40858) [DRSC21874]?
replicate 1, z-score of dpERK with insulin: -0.54

Individual results from the entries so far:
Under “replicate 1, z-score of dpERK with insulin”, CG3407 (GeneID 33606) [DRSC00603] has 0.07
Result for CG13131 (GeneID 34334) [DRSC02227] in “replicate 1, z-score of dpERK with insulin”: -0.01
CG10747 (GeneID 35295) [DRSC02104], replicate 1, z-score of dpERK with insulin: 0.37
